Reference: the supplement of paper PMC10849652
This is one part of the list.

Protein sequences, listed by entry. Tags and fused reporters are not part of them. Lines headed by an entry give the natural chain unless they say otherwise; changes in a name come on top.
UniProt Q9BVL2: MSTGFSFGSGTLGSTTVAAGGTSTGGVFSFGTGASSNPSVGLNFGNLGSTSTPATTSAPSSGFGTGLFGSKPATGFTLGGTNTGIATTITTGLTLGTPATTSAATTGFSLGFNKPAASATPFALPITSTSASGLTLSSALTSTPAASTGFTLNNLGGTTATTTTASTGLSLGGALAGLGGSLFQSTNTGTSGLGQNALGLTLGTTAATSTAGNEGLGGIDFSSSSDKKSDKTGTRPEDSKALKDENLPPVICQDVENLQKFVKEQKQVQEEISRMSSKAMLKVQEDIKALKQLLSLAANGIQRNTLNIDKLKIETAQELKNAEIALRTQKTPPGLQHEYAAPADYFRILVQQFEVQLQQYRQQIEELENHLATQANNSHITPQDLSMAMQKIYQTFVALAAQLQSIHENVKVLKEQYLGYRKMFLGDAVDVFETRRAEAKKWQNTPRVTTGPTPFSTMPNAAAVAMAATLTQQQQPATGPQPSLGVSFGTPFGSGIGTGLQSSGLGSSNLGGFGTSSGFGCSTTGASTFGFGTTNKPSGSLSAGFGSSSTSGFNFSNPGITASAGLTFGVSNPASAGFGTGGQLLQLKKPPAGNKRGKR
UniProt Q9UBD5: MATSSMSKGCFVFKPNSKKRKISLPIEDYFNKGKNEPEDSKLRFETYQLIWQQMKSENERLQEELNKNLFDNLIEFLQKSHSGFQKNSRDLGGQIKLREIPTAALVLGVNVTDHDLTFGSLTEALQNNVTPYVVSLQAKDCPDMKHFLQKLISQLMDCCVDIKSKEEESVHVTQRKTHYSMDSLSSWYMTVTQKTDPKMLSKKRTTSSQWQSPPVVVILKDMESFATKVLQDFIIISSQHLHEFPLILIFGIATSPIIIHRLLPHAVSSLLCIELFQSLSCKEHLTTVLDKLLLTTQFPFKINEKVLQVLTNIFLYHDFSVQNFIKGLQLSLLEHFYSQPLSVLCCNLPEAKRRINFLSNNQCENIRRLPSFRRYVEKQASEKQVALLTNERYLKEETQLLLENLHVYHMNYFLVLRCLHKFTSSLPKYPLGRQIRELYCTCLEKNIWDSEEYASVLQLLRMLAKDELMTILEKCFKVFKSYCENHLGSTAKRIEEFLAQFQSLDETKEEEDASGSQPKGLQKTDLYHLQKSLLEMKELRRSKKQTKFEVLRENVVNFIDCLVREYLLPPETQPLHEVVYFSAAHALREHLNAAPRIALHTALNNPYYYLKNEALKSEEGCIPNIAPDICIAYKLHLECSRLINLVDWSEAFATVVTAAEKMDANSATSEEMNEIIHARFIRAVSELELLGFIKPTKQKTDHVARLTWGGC
UniProt Q99571: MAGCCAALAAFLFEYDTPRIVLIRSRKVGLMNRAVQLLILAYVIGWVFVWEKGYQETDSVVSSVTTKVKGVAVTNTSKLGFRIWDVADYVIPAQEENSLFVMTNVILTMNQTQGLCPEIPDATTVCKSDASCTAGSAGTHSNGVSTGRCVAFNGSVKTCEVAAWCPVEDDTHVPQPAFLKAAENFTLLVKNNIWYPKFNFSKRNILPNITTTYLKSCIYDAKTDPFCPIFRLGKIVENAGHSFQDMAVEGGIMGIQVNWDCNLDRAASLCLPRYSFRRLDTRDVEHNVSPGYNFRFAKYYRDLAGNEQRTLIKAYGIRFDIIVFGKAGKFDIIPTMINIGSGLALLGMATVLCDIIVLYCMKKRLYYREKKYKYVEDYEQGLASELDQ
UniProt Q96FW1, whole entry, looked up: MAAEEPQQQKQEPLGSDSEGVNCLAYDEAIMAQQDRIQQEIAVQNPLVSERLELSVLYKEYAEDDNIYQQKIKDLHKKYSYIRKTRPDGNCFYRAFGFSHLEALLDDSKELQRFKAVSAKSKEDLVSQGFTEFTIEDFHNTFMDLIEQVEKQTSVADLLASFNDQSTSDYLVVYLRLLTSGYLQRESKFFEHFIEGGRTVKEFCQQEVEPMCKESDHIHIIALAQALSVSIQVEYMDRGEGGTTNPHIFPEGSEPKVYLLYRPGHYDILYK
UniProt Q9H8K7: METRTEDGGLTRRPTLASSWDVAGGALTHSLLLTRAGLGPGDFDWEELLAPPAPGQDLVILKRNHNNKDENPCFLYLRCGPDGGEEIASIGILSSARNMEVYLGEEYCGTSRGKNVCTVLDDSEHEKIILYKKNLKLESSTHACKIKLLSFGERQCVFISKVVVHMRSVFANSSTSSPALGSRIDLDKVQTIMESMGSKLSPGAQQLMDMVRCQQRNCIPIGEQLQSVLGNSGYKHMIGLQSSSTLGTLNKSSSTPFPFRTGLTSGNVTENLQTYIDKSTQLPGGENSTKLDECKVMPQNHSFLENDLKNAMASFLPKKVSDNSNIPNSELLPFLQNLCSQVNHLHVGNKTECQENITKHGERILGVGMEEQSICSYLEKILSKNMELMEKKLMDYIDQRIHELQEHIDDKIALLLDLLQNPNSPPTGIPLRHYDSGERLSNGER
UniProt Q96E52: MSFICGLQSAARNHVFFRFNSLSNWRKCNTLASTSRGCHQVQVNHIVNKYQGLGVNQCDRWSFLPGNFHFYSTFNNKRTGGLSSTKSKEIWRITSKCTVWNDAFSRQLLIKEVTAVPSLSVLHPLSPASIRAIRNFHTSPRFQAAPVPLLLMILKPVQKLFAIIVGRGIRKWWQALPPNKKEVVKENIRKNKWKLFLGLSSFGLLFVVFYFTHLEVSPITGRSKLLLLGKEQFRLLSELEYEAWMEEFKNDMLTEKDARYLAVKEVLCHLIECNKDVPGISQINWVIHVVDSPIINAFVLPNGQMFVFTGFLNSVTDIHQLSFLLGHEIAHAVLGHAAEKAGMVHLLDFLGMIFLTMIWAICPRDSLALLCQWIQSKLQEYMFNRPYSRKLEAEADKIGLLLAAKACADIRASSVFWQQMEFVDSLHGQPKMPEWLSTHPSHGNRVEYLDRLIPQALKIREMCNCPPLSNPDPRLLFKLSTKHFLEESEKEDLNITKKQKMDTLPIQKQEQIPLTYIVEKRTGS
UniProt P13674: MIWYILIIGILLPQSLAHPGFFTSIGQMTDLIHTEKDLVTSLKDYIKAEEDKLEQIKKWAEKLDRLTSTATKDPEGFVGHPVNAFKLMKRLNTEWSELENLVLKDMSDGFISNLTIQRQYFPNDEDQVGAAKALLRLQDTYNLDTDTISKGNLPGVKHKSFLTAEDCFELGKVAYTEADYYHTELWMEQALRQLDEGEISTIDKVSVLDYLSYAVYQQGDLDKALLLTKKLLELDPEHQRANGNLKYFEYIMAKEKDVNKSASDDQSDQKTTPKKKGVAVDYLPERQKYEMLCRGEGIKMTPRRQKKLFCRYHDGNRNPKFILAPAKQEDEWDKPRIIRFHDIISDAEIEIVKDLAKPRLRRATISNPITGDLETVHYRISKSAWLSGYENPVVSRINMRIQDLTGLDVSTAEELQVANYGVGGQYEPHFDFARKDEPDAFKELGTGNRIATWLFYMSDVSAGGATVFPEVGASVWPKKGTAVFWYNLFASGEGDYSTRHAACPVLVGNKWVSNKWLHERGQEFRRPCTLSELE
UniProt Q9Y6R0: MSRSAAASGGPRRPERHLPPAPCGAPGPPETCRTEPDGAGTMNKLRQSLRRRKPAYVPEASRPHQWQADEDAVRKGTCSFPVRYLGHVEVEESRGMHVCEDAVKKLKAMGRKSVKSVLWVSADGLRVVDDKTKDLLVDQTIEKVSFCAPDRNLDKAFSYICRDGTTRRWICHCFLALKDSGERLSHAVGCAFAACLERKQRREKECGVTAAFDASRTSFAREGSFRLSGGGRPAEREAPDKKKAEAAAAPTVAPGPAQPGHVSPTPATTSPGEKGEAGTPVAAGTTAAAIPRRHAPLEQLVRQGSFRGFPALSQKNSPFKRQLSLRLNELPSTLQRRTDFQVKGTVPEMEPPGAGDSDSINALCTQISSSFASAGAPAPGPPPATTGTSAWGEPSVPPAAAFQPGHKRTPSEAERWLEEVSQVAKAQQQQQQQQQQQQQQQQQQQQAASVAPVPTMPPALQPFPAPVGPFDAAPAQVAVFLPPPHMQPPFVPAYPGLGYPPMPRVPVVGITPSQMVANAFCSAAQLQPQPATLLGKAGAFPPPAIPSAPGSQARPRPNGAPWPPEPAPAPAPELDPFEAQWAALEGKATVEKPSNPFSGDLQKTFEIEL
UniProt Q9NWU1, whole entry, looked up: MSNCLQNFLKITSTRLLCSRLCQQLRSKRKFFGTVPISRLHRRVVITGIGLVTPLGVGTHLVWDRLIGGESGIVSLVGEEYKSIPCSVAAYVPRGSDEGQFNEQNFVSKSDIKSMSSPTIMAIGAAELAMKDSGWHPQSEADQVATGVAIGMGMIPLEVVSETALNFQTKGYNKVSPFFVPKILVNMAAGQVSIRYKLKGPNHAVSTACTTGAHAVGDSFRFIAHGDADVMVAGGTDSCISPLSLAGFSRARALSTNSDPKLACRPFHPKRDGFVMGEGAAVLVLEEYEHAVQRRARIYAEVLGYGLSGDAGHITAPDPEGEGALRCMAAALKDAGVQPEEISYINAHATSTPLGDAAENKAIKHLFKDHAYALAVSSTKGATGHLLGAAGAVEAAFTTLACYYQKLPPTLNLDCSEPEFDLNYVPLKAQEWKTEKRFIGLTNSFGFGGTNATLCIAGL
UniProt Q8WUM0: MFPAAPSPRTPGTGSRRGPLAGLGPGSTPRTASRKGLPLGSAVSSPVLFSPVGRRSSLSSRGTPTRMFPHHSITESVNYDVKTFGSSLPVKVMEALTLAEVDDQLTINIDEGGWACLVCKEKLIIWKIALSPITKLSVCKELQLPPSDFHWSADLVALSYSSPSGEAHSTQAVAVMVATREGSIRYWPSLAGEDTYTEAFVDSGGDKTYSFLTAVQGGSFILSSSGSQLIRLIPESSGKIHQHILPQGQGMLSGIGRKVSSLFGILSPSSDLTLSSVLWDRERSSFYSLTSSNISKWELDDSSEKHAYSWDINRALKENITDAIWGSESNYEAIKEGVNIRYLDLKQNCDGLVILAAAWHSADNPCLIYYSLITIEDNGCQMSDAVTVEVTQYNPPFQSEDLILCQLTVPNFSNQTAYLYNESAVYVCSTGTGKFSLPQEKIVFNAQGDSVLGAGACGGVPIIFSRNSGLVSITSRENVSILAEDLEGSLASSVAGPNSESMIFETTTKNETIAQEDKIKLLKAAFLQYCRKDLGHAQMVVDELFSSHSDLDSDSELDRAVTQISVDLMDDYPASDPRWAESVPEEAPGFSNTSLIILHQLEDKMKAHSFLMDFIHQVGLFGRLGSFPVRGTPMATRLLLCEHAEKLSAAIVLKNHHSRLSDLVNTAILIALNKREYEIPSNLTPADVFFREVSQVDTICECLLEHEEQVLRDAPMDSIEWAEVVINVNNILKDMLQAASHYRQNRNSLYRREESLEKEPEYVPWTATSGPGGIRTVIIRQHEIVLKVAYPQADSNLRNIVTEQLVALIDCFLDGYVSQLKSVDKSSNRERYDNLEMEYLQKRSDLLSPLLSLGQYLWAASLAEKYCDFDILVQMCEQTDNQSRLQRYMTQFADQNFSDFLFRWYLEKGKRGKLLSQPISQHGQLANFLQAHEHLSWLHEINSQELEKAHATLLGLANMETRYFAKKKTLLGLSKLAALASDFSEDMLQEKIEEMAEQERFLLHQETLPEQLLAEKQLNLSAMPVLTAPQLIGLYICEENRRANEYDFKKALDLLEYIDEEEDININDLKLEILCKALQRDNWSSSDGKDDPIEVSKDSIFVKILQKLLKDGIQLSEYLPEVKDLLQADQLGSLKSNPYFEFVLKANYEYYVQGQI
UniProt Q96MG7: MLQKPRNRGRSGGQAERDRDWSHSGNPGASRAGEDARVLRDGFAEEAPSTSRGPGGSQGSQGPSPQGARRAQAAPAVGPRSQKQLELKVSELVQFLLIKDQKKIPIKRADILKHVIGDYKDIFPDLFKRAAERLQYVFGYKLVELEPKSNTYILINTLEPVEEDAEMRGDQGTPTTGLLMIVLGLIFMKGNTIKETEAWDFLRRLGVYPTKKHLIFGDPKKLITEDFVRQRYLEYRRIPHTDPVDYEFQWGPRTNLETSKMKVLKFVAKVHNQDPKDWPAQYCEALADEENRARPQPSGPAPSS
UniProt Q86UY8: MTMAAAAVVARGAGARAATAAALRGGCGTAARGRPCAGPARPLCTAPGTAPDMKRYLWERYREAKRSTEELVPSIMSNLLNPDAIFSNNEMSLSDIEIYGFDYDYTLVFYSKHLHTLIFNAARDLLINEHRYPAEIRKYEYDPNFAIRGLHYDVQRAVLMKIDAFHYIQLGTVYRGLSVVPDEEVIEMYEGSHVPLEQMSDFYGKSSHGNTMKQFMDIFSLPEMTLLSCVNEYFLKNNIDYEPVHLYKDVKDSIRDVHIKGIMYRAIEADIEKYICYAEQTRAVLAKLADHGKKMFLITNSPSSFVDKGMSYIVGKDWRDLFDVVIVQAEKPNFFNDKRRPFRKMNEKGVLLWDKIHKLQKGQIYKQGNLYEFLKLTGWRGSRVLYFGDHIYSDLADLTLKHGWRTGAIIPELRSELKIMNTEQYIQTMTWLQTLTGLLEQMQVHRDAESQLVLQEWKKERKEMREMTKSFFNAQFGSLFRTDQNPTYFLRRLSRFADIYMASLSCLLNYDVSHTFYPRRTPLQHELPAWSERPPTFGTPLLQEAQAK

Legend:
Test in all cases: log2 fold change, soluble protein after heating vs DMSO (PISA); higher = thermal stabilisation; K562 cells, 10 uM, 30 min; active = over 0.2 and 3.5 SD of the protein, either way, in both replicates (recomputed)
erlotinib = compound: C#Cc1cccc(Nc2ncnc3cc(OCCOC)c(OCCOC)cc23)c1 [erlotinib]
Summary of the method: (§1)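 Soluble protein was defined as the supernatant after 21,000xg for 90 min. It came from K562 cells at 2×10^6 cells/mL given 10 μM compound for 30 min, heated in aliquots for 3 min across 48°C-58°C, pooled, and extracted in PBS with 0.5% NP-40 at 4°C, and was quantified by TMTpro 16plex LC-MS/MS with equalised channel sums. Thermal stability against control samples, from duplicates, is reported as log2 fold change.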

[1] = compound: C/C(=N\NC(=O)C1=CC(=CC=C1)S(=O)(=O)N2CCOCC2)/C3=C(C=CC(=C3)Cl)O
Summary of the method: as §1

[2] = compound: C1=CC(=C(C=C1Cl)C2=NC3=NC=CN=C3C(=N2)NC4=CC=NC=C4)F
Summary of the method: as §1

[3] = compound: C1=CC(=CC=C1C2=NC3=C(N2)C=C(C=C3)C(=O)N)OC4=CC=C(C=C4)Cl
Summary of the method: as §1

[4] = compound: C1=CC2=C(C=CC(=C2)/C=C\3/C(=O)NC(=NCC4=CC=CS4)S3)N=C1
Summary of the method: as §1

[5] = compound: C1=CC2=NC=CN=C2C=C1/C=C/3\C(=O)NC(=O)S3
Summary of the method: as §1

[6] = compound: C1=CC=C(C=C1)C2=NC(=C(N2)C3=CC=NC=C3)C4=CC(=C(C=C4)Cl)O
Summary of the method: as §1

[7] = compound: C1=CC=C2C(=C1)C3=NNC4=CC=CC(=C43)C2=O
Summary of the method: as §1

[8] = compound: C1CCN(C1)C(=O)NC2=CC=CC(=C2)NC3=NC=C(C(=N3)NCCC4=CN=CN4)Br
Summary of the method: as §1

[9] = compound: C1CN(CCC1(CC2=CC=C(C=C2)Cl)N)C3=NC=NC4=C3C=CN4
Summary of the method: as §1

Measured: log2 fold change

NT5C (UniProt Q8TCD5)
inactive: erlotinib 0.043 | [1] 0.001 | [2] 0.008 | [3] 0.043 | [4] -0.017 | [5] 0.018 | [6] 0.026 | [7] -0.049 | [8] 0.014 | [9] 0.036

NUP58 (UniProt Q9BVL2)
inactive: erlotinib -0.024 | [1] 0.033 | [2] -0.015 | [3] -0.023 | [4] 0.067 | [5] 0.01 | [6] -0.076 | [7] -0.039 | [8] 0.009 | [9] 0.009

NUCKS1 (UniProt Q9H1E3)
inactive: erlotinib 0.045 | [1] -0.098 | [2] -0.002 | [3] -0.029 | [4] -0.052 | [5] 0 | [6] -0.089 | [7] 0.033 | [8] 0.067 | [9] -0.002

ORC3 isoform 2 (UniProt Q9UBD5)
inactive: erlotinib 0.134 | [1] -0.068 | [2] -0.024 | [3] -0.021 | [4] 0.214 | [5] 0.042 | [6] 0.013 | [7] 0.072 | [8] -0.013 | [9] 0.07

NUDT3 (UniProt O95989)
inactive: erlotinib -0.06 | [1] 0.056 | [2] 0.007 | [3] -0.013 | [4] 0.028 | [5] -0.005 | [6] -0.043 | [7] -0.011 | [8] -0.048 | [9] 0.051

NSMCE2 (UniProt Q96MF7)
inactive: erlotinib -0.076 | [1] 0.012 | [2] -0.078 | [3] 0.009 | [4] 0.023 | [5] -0.096 | [6] 0.04 | [7] -0.058 | [8] -0.001 | [9] 0.008

NSUN6 (UniProt Q8TEA1)
inactive: erlotinib 0.016 | [1] 0.053 | [2] 0.063 | [3] 0.045 | [4] 0.017 | [5] -0.011 | [6] 0.03 | [7] -0.001 | [8] -0.025 | [9] -0.02

OCRL (UniProt Q01968)
inactive: erlotinib 0.034 | [1] 0.009 | [2] -0.107 | [3] -0.173 | [4] 0.038 | [5] -0.006 | [6] 0.029 | [7] -0.053 | [8] 0.049 | [9] -0.027

ORC4 (UniProt O43929)
inactive: erlotinib 0.038 | [1] 0.009 | [2] 0.027 | [3] -0.014 | [4] -0.038 | [5] 0.028 | [6] -0.034 | [7] 0.055 | [8] -0.049 | [9] 0.008

P2RX4 isoform 2 (UniProt Q99571)
inactive: erlotinib 0.162 | [1] -0.037 | [2] 0.062 | [3] -0.101 | [4] -0.057 | [5] -0.068 | [6] 0.02 | [7] 0.082 | [8] -0.051 | [9] 0.126

OTC (UniProt P00480)
inactive: erlotinib 0.24 | [1] -0.232 | [2] -0.079 | [3] -0.111 | [4] 0.325 | [5] 0.04 | [6] -0.225 | [7] -0.065 | [8] 0.253 | [9] -0.058

OTUB1 (UniProt Q96FW1)
inactive: erlotinib -0.003 | [1] 0.082 | [2] 0.067 | [3] -0.021 | [4] 0.003 | [5] 0.02 | [6] 0.072 | [7] 0.018 | [8] -0.004 | [9] -0.001

OTUD4 (UniProt Q01804)
inactive: erlotinib -0.032 | [1] -0.035 | [2] -0.137 | [3] 0.042 | [4] -0.033 | [5] -0.025 | [6] 0 | [7] 0.038 | [8] -0.011 | [9] 0.04

PAAT (UniProt Q9H8K7)
inactive: erlotinib 0.072 | [1] -0.136 | [2] 0.003 | [3] -0.06 | [4] -0.114 | [5] 0.146 | [6] 0.019 | [7] -0.099 | [8] -0.119 | [9] -0.062

OMA1 (UniProt Q96E52)
inactive: erlotinib 0.077 | [1] 0.029 | [2] 0.051 | [3] 0.019 | [4] 0.042 | [5] 0.133 | [6] 0.026 | [7] -0.027 | [8] -0.148 | [9] 0.094

NUSAP1 (UniProt Q9BXS6)
inactive: erlotinib -0.029 | [1] -0.114 | [2] -0.166 | [3] 0.004 | [4] -0.02 | [5] 0.026 | [6] -0.009 | [7] -0.009 | [8] 0.058 | [9] -0.028

P4HA1 (UniProt P13674)
inactive: erlotinib -0.062 | [1] -0.118 | [2] -0.051 | [3] 0.03 | [4] -0.002 | [5] -0.022 | [6] -0.006 | [7] -0.013 | [8] -0.044 | [9] -0.042

OCIAD1 (UniProt D6RDK6)
inactive: erlotinib 0.095 | [1] -0.114 | [2] 0.017 | [3] -0.099 | [4] 0.2 | [5] 0.148 | [6] -0.252 | [7] -0.167 | [8] 0.19 | [9] 0.009

OPLAH (UniProt O14841)
inactive: erlotinib 0.005 | [1] 0.04 | [2] 0.025 | [3] 0.001 | [4] 0.058 | [5] -0.016 | [6] 0.011 | [7] 0.012 | [8] 0.006 | [9] 0.044

OTUD5 isoform 5 (UniProt Q96G74)
inactive: erlotinib -0.02 | [1] -0.003 | [2] 0.043 | [3] 0.039 | [4] 0.009 | [5] 0.019 | [6] 0.079 | [7] 0.046 | [8] -0.073 | [9] 0.008

NUMBL (UniProt Q9Y6R0)
inactive: erlotinib -0.001 | [1] 0.021 | [2] -0.026 | [3] -0.095 | [4] 0.085 | [5] -0.047 | [6] 0.042 | [7] 0.056

OXSM (UniProt Q9NWU1)
inactive: erlotinib -0.079 | [1] 0.024 | [2] 0.005 | [3] 0.055 | [4] -0.052 | [5] -0.001 | [6] 0.053 | [7] -0.034 | [8] -0.042 | [9] 0.019

NUP107 (UniProt P57740)
inactive: erlotinib -0.05 | [1] 0.004 | [2] -0.128 | [3] 0.063 | [4] 0.04 | [5] 0.065 | [6] -0.037 | [7] -0.192 | [8] -0.145 | [9] -0.005

NTMT1 (UniProt Q9BV86)
inactive: erlotinib 0.039 | [1] 0.13 | [2] 0.086 | [3] 0.002 | [4] 0.039 | [5] 0.032 | [6] 0.006 | [7] 0.086 | [8] -0.101 | [9] 0.151

NUP133 (UniProt Q8WUM0)
inactive: erlotinib -0.003 | [1] -0.015 | [2] -0.135 | [3] -0.028 | [4] -0.052 | [5] 0.077 | [6] -0.039 | [7] -0.194 | [8] -0.01 | [9] -0.052

NSMCE3 (UniProt Q96MG7)
inactive: erlotinib -0.032 | [1] 0.018 | [2] 0.04 | [3] 0.053 | [4] 0.028 | [5] 0.019 | [6] -0.012 | [7] 0.029 | [8] 0.01 | [9] 0.048

NUP155 (UniProt O75694)
inactive: erlotinib 0.022 | [1] 0.108 | [2] 0.013 | [3] 0.018 | [4] 0.03 | [5] 0.014 | [6] 0.062 | [7] -0.076 | [8] 0.005 | [9] -0.037

NUDT21 (UniProt O43809)
inactive: erlotinib -0.02 | [1] 0.07 | [2] -0.127 | [3] 0.047 | [4] -0.035 | [5] -0.015 | [6] -0.026 | [7] 0.008 | [8] 0.003 | [9] -0.089

2 successive entries out of the list so far, for reference:
NUP133 (UniProt Q8WUM0)
inactive: erlotinib -0.003 | [1] -0.015 | [2] -0.135 | [3] -0.028 | [4] -0.052 | [5] 0.077 | [6] -0.039 | [7] -0.194 | [8] -0.01 | [9] -0.052

NSMCE3 (UniProt Q96MG7)
inactive: erlotinib -0.032 | [1] 0.018 | [2] 0.04 | [3] 0.053 | [4] 0.028 | [5] 0.019 | [6] -0.012 | [7] 0.029 | [8] 0.01 | [9] 0.048

(list continues)

OARD1 (UniProt Q9Y530)
inactive: erlotinib 0.109 | [1] 0.054 | [2] 0.003 | [3] -0.045 | [4] 0.088 | [5] 0 | [6] 0.045 | [7] 0.075 | [8] -0.087 | [9] 0.023

NT5DC3 (UniProt Q86UY8)
inactive: erlotinib 0.001 | [1] -0.027 | [2] 0.055 | [3] -0.031 | [4] 0 | [5] 0.052 | [6] 0.004 | [7] -0.042 | [8] 0.005 | [9] 0.002
